PMC10126419, “pyHeart4Fish: Chamber-specific heart phenotype quantification of zebrafish in high-content screens” (Frontiers in Cell and Developmental Biology, 2023)
Counter-ions that a name gives are not always drawn.

Assays:
zebrafish embryos = experiment: Toxicity score (ToxScore) at increasing compound concentrations; settings: 5–80 µM
[1] = test system: Tg(myl7:eGFP)^twu34/+ zebrafish embryos; experiment: Chamber-specific quantitative heart phenotyping with pyHeart4Fish; settings: 20 µM, vs DMSO controls;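 further: embryos exposed 24 h from 24 hpf in 0.2% DMSO egg water, tricaine-anaesthetised, heartbeat videos imaged at 470 nm and hearts analysed chamber by chamber from pixel-intensity beat curves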

CN(C)CCN(Cc1cccs1)c1ccccn1 [Methapyrilene HCl, methapyrilene HCl]
ToxScore, highest over tested concentrations (zebrafish embryos): ≤ 2.6
Effect on heart function / morphology: contractility, conduction, arrhythmia, HS, EF [1]: a slower HR in the ventricle than in the atrium
